From publication PMC3185033
Results are given in words; binding and its absence hold for the method and conditions named. In cells and extracts the contact can be indirect. Here binding means that the protein was enriched with, or labelled near, the bait; the list need not be complete.

By UniProt entry, the sequences of proteins in these tests, tags left out.
UniProt Q04887: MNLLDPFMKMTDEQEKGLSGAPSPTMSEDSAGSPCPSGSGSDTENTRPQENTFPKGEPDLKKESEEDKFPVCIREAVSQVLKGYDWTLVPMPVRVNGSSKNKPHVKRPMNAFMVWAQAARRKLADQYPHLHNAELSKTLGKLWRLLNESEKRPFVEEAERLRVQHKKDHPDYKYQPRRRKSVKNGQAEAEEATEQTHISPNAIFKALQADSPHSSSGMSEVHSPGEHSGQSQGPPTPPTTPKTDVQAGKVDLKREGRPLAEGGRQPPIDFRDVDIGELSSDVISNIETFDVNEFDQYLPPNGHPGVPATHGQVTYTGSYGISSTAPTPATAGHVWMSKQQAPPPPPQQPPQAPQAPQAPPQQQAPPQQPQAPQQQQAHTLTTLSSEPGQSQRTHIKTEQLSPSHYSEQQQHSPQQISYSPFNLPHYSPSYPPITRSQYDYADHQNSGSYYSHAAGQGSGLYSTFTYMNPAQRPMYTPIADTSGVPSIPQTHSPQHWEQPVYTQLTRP
UniProt Q9C0E2: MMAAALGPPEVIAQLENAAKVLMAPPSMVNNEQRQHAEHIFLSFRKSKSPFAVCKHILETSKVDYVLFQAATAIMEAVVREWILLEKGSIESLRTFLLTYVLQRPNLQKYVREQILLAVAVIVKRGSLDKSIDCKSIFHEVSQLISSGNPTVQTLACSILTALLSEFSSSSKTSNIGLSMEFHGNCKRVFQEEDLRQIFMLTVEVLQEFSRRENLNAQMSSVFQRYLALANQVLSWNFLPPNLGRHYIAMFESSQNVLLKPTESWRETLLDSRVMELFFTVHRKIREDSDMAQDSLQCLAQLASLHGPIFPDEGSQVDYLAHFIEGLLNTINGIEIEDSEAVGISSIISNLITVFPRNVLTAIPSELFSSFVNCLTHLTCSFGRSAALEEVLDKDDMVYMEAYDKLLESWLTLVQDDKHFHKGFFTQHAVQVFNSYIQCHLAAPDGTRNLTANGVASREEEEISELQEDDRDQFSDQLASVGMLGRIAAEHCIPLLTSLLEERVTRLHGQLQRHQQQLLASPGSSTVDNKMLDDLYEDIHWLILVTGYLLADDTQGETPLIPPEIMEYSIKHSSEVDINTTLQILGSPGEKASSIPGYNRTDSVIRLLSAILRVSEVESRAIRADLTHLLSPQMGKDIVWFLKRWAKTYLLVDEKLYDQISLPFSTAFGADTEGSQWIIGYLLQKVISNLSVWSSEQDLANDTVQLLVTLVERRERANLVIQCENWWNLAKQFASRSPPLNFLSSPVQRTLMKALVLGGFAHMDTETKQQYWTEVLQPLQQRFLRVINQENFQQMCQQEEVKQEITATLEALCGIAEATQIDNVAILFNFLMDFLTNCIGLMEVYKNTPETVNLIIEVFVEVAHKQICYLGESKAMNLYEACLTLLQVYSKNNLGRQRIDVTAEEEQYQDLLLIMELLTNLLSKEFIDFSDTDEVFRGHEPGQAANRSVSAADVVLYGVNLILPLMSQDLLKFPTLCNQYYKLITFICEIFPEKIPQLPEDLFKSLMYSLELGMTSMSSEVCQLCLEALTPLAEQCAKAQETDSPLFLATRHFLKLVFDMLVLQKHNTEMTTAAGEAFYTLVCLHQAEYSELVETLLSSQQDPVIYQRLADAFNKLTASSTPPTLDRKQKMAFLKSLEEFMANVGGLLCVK

Target: FLAG-tagged Sox9 (full length) (mouse) (UniProt Q04887)
Assay: affinity purification with mass spectrometry; FLAG-Sox9 on anti-FLAG M2 agarose incubated with HeLa S3 nuclear extract 3 hr at 4°C; washed with B150 buffer (150 mM KCl, pH 8.0); eluted with glycine-HCl pH 2.5; NuPAGE, silver stain, MALDI-TOF MS of the band; only the target purified

binding: binds
Substance: exportin 4 (Exp4), endogenous in HeLa nuclear extract (from UniProt Q9C0E2 1-1151)
